Results deposited as PubChem BioAssay AID1259425 (University of Nebraska Medical Center, 2018)
Purpose: 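Find knockdowns that reproduce the gene expression pattern seen when KSR1 is lost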 (primary screen). System: HCT116 human colon cancer cells. Reagent: siRNA pool against human genes, 50 nM siRNA. Measurement: 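mRNA of six signature genes measured together by branched-DNA assay after 50 nM siRNA pool, blank removed, divided by geometric mean of two housekeeping genes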. Direction: BNIP3L mRNA: higher = more BNIP3L transcript after knockdown; NDRG1 mRNA: higher = more NDRG1 transcript after knockdown; BNIP3 mRNA: higher = more BNIP3 transcript after knockdown; ALDOC mRNA: higher = more ALDOC transcript after knockdown.
Shown is a random part of about 14,000 reagents. Not all columns of the deposit are shown. The record does not give: the time to read-out.

| target | BNIP3L mRNA, set 1 | NDRG1 mRNA, set 1 | BNIP3 mRNA, set 1 | ALDOC mRNA, set 1 |
| --- | --- | --- | --- | --- |
| TMEM165 (transmembrane protein 165) | 0.146 | 0.884 | 0.515 | 0.0224 |
| FAM222B (family with sequence similarity 222 member B) | 0.0656 | 0.293 | 0.258 | 0.0181 |
| MTX1 (metaxin 1) | 0.087 | 0.109 | 0.363 | 0.0194 |
| PRELID1 (PRELI domain containing 1) | 0.111 | 0.121 | 0.194 | 0.0275 |
| POLG (DNA polymerase gamma, catalytic subunit) | 0.0493 | 0.148 | 0.339 | 0.0194 |
| CELA2B (chymotrypsin like elastase 2B) | 0.108 | 0.317 | 0.33 | 0.0243 |
| VCPIP1 (valosin containing protein interacting protein 1) | 0.0584 | 0.619 | 0.401 | 0.0292 |
| DIRAS3 (DIRAS family GTPase 3) | 0.122 | 0.0849 | 0.305 | 0.0272 |
| MPO (myeloperoxidase) | 0.0874 | 0.0818 | 0.197 | 0.021 |
| CNTN1 (contactin 1) | 0.0913 | 0.0838 | 0.293 | 0.0125 |
| MCF2L2 (MCF.2 cell line derived transforming sequence-like 2) | 0.159 | 0.24 | 0.265 | 0.0388 |
| ATP1A4 (ATPase Na+/K+ transporting subunit alpha 4) | 0.116 | 0.269 | 0.403 | 0.00921 |
| IFNA17 (interferon alpha 17) | 0.0743 | 0.239 | 0.251 | 0.0181 |
| GPI (glucose-6-phosphate isomerase) | 0.155 | 0.236 | 0.237 | 0.0415 |
| TAOK3 (TAO kinase 3) | 0.0545 | 0.0537 | 0.23 | 0.00683 |
| ZSCAN5A (zinc finger and SCAN domain containing 5A) | 0.192 | 0.342 | 0.287 | 0.0118 |
| SEMA6C (semaphorin 6C) | 0.118 | 0.17 | 0.263 | 0.0205 |
| AQR (aquarius intron-binding spliceosomal factor) | 0.1 | 0.134 | 0.226 | 0.0236 |
| RPS3A (ribosomal protein S3A) | 0.137 | 0.314 | 0.416 | 0.0368 |
| FGR (FGR proto-oncogene, Src family tyrosine kinase) | 0.215 | 0.23 | 0.37 | 0.01 |
| DEFA5 (defensin alpha 5) | 0.124 | 0.193 | 0.267 | 0.0239 |
| LSG1 (large 60S subunit nuclear export GTPase 1) | 0.116 | 0.141 | 0.306 | 0.0113 |
| NDST3 (N-deacetylase and N-sulfotransferase 3) | 0.247 | 0.3 | 0.547 | 0.0501 |
| NR0B2 (nuclear receptor subfamily 0 group B member 2) | 0.0521 | 0.072 | 0.281 | 0.0163 |
| EVI2B (ecotropic viral integration site 2B) | 0.108 | 0.113 | 0.305 | 0.0207 |
| SH3BP1 (SH3 domain binding protein 1) | 0.0947 | 0.619 | 0.447 | 0.0312 |
| RNASEH2C (ribonuclease H2 subunit C) | 0.308 | 0.183 | 0.242 | 0.0602 |
| UBE2J1 (ubiquitin conjugating enzyme E2 J1) | 0.0904 | 0.205 | 0.0434 | 0.0275 |
| SNRPD1 (small nuclear ribonucleoprotein D1 polypeptide) | 0.161 | 0.283 | 0.225 | 0.0617 |
| COL8A2 (collagen type VIII alpha 2 chain) | 0.153 | 0.118 | 0.3 | 0.023 |
| TLNRD1 (talin rod domain containing 1) | 0.0631 | 0.528 | 0.312 | 0.00765 |
| MS4A8 (membrane spanning 4-domains A8) | 0.0737 | 0.13 | 0.196 | 0.0129 |
| TECTB (tectorin beta) | 0.31 | 0.548 | 0.658 | 0.0116 |
| ABCD4 (ATP binding cassette subfamily D member 4) | 0.0941 | 0.231 | 0.257 | 0.0116 |
| TNFRSF8 (TNF receptor superfamily member 8) | 0.14 | 0.107 | 0.487 | 0.0122 |
| CYP4F11 (cytochrome P450 family 4 subfamily F member 11) | 0.0983 | 0.153 | 0.308 | 0.0318 |
| SOCS7 (suppressor of cytokine signaling 7) | 0.0889 | 0.059 | 0.187 | 0.0181 |
| KIF2B (kinesin family member 2B) | 0.0871 | 0.21 | 0.282 | 0.041 |
| SPRY4 (sprouty RTK signaling antagonist 4) | 0.101 | 0.407 | 0.361 | 0.0283 |

8 of these entries, reformatted.
{"target":"DEFA5 (defensin alpha 5)","BNIP3L mRNA, set 1":0.124,"NDRG1 mRNA, set 1":0.193,"BNIP3 mRNA, set 1":0.267,"ALDOC mRNA, set 1":0.0239}
{"target":"LSG1 (large 60S subunit nuclear export GTPase 1)","BNIP3L mRNA, set 1":0.116,"NDRG1 mRNA, set 1":0.141,"BNIP3 mRNA, set 1":0.306,"ALDOC mRNA, set 1":0.0113}
{"target":"NDST3 (N-deacetylase and N-sulfotransferase 3)","BNIP3L mRNA, set 1":0.247,"NDRG1 mRNA, set 1":0.3,"BNIP3 mRNA, set 1":0.547,"ALDOC mRNA, set 1":0.0501}
{"target":"NR0B2 (nuclear receptor subfamily 0 group B member 2)","BNIP3L mRNA, set 1":0.0521,"NDRG1 mRNA, set 1":0.072,"BNIP3 mRNA, set 1":0.281,"ALDOC mRNA, set 1":0.0163}
{"target":"EVI2B (ecotropic viral integration site 2B)","BNIP3L mRNA, set 1":0.108,"NDRG1 mRNA, set 1":0.113,"BNIP3 mRNA, set 1":0.305,"ALDOC mRNA, set 1":0.0207}
{"target":"SH3BP1 (SH3 domain binding protein 1)","BNIP3L mRNA, set 1":0.0947,"NDRG1 mRNA, set 1":0.619,"BNIP3 mRNA, set 1":0.447,"ALDOC mRNA, set 1":0.0312}
{"target":"RNASEH2C (ribonuclease H2 subunit C)","BNIP3L mRNA, set 1":0.308,"NDRG1 mRNA, set 1":0.183,"BNIP3 mRNA, set 1":0.242,"ALDOC mRNA, set 1":0.0602}
{"target":"UBE2J1 (ubiquitin conjugating enzyme E2 J1)","BNIP3L mRNA, set 1":0.0904,"NDRG1 mRNA, set 1":0.205,"BNIP3 mRNA, set 1":0.0434,"ALDOC mRNA, set 1":0.0275}

Additional reagents follow:
| target | BNIP3L mRNA, set 1 | NDRG1 mRNA, set 1 | BNIP3 mRNA, set 1 | ALDOC mRNA, set 1 |
| --- | --- | --- | --- | --- |
| ACBD6 (acyl-CoA binding domain containing 6) | 0.116 | 0.185 | 0.296 | 0.0406 |
| APOBEC2 (apolipoprotein B mRNA editing enzyme catalytic subunit 2) | 0.119 | 0.338 | 0.147 | 0.0252 |
| SPRY3 (sprouty RTK signaling antagonist 3) | 0.117 | 0.293 | 0.297 | 0.029 |
| RPL27 (ribosomal protein L27) | 0.48 | 1.28 | 0.532 | 0.0775 |
| MLEC (malectin) | 0.141 | 0.227 | 0.441 | 0.053 |
| FCN2 (ficolin 2) | 0.0837 | 0.176 | 0.111 | 0.0113 |
| MON2 (MON2 regulator of endosome-to-Golgi trafficking) | 0.114 | 0.0852 | 0.323 | 0.0284 |
| IFIT2 (interferon induced protein with tetratricopeptide repeats 2) | 0.286 | 1.14 | 0.26 | 0.0986 |
| CDCA3 (cell division cycle associated 3) | 0.25 | 0.405 | 0.246 | 0.163 |
| PGCKA1 (PDCD10 and GCKIII kinases associated 1) | 0.116 | 0.419 | 0.27 | 0.0258 |
| CX3CL1 (C-X3-C motif chemokine ligand 1) | 0.0616 | 0.0637 | 0.246 | 0.0151 |
| PRDM4 (PR/SET domain 4) | 0.17 | 0.16 | 0.437 | 0.0156 |
| CDC42 (cell division cycle 42) | 0.0731 | 0.283 | 0.308 | 0.0147 |
| WSB1 (WD repeat and SOCS box containing 1) | 0.0567 | 0.251 | 0.349 | 0.0434 |
| CUTA (cutA divalent cation tolerance homolog) | 0.137 | 0.395 | 0.302 | 0.0227 |
| HTATIP2 (HIV-1 Tat interactive protein 2) | 0.201 | 0.119 | 0.288 | 0.00876 |
| KLF15 (KLF transcription factor 15) | 0.0897 | 0.125 | 0.266 | 0.00623 |
| TRPV2 | 0.108 | 0.201 | 0.328 | 0.0314 |
| CAPZA2 (capping actin protein of muscle Z-line subunit alpha 2) | 0.0592 | 0.106 | 0.238 | 0.00858 |
| HPD (4-hydroxyphenylpyruvate dioxygenase) | 0.138 | 0.369 | 0.167 | 0.00715 |
| CYLC1 (cylicin 1) | 0.255 | 0.749 | 0.516 | 0.0525 |
| LPAR5 (lysophosphatidic acid receptor 5) | 0.242 | 0.248 | 0.271 | 0.0416 |
| PERP (p53 apoptosis effector related to PMP22) | 0.102 | 0.175 | 0.218 | 0.0552 |
| MXD1 (MAX dimerization protein 1) | 0.112 | 0.209 | 0.231 | 0.0024 |
